# Experimental data from PubChem BioAssay AID1259415 (National Center for Advancing Translational Sciences (NCATS), 2018).
# The whole screen tested about 410,000 compounds, of which about 18,000 (4.4%) were called active. This list was built around the results that the source calls inconclusive (neither active nor inactive); the mix of calls is not that of the screen. Rule as the data show it: active = activity change below about -60%; inconclusive = no clear call, values can overlap the other calls; inactive = above about -39%.
# Assay: qHTS Assay for inhibitors of the human cytomegalovirus (HCMV)
# Settings: HFF cells, HCMV-luciferase reporter, 72 h; at 57.5 µM; active compounds read low
# In short: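 After 16 h attachment at 37C, HFF cells received test compound and HCMV-luciferase (1 PFU/cell); reporter luminescence read 72 h later, data normalized against buffer-only and known inhibitor Salinomycin.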
# % is scaled to controls: 0 for no effect and ±100 for the full control effect.
row,SMILES,"activity change, negative = inhibition"
1,CC(C)(C)c1csc(NC(=O)c2ccc(Cl)s2)n1,inconclusive: -44.5%
2,CCC/C(C)=N/NC(=O)c1ccccc1O,inactive: 12%
3,OC[C@@H](O)C1OC2NC(=S)OC2C1O (some centres undefined),inconclusive: -42.9%
4,Cc1ccc(NC(=O)CC2(CC(=O)O)CCCC2)c(C)c1,inactive: 21.5%
5,O=C(O)Cc1ccc(-c2ccccc2-c2ccccc2)cc1,inconclusive: -48.1%
6,CCc1ccccc1-n1c(SCC(=O)Nc2ccc(C)cc2)nc2n[nH]c(C)c2c1=N,active: -69.1%
7,CN(c1cnn(-c2ccccc2)c(=O)c1Cl)n1cccc1,inconclusive: -43.9%
8,CCc1cccc(NC(=O)Cn2c(-c3ccc(F)cc3)cc(C(C)=O)c2C)c1,inconclusive: 0%
9,COc1ccc(Cl)cc1C(=O)OCC(=O)N(CC(C)C)c1c(N)n(Cc2ccccc2)c(=O)[nH]c1=O,inconclusive: -47.7%
10,Cn1ncc(Cl)c1C(=O)NCc1ccc(Cl)cc1,active: -71.9%
11,N#Cc1c(N)n(-c2ccc(C(=O)O)cc2)c2nc3ccccc3nc12,inconclusive: -40.9%
12,CSC1=N/C(=C\c2cccnc2)C(=O)N1c1ccccc1,inconclusive: -46.7%
13,Cc1ccc(C)c(-c2cc(C(=O)Nc3nccs3)c3ccccc3n2)c1,active: -70.7%
14,CC(NC(=O)NC12CC3CC(CC(C3)C1)C2)c1ccc2c(c1)OCO2 (centres undefined),inconclusive: -41.9%
15,COc1cccc(N2CCN(S(=O)(=O)c3c(C)[nH]c(C)c3C(=O)N3CCCCC3)CC2)c1,inconclusive: -48.4%
16,CSc1ccc(CCNC(=O)c2c(C)nn(-c3ccc(F)cc3)c2-n2cccc2)cc1,inconclusive: -43.7%
17,O=C(c1ccccc1)c1ccccc1C(=O)c1ccccc1,inconclusive: -56.7%
18,Cc1cc(C)nc(SCCC(=O)Nc2ccccc2C)n1,inconclusive: -40.2%
19,O=C1CCC[C@H]2[C@@H](Cc3ccccc3)[C@H](N(Cc3ccccc3)Cc3ccccc3)CC[C@]23CCCN13,inactive: -23.7%
20,COc1ccc(S(=O)(=O)N2CCN(c3ncccn3)CC2)cc1[N+](=O)[O-],inactive: 22.8%
21,COC(=O)c1cc(S(=O)(=O)N2CCN(Cc3ccccc3)CC2)c[nH]1,inconclusive: -41.1%

row,SMILES,"activity change, negative = inhibition"
1,O=C1CC(N2CCSCC2)C(=O)N1c1ccc(F)cc1 (centres undefined),inactive: 13.4%
2,Cc1ccc(-n2ncc(C(=O)Nc3ccc(Cl)cc3)c2C2CCNCC2)cc1C,active: -70.3%
3,C[C@H](OC(=O)N1CCN(C(c2ccccc2)c2ccccc2)CC1)[C@@H]1O[C@@]2(C)CCC[C@H]1O2,inconclusive: -47.5%
4,CN(CCO)C(=O)C1CCN(c2ncc(C(F)(F)F)cc2Cl)CC1,inconclusive: -44.3%
5,CCn1c(Oc2ccccc2C)nc2c1c(=O)n(C)c(=O)n2C,active: -73.6%
6,CCCn1c(N)c(C(=O)CSc2nnc(-c3cccnc3)n2-c2ccc(C)cc2C)c(=O)[nH]c1=O,inconclusive: -53.9%
7,CN1CCC(N(C)S(=O)(=O)c2ccc(NC(=O)COc3ccc(F)cc3)cc2)CC1,inactive: -19.8%
8,Cc1ccc(NC(=O)CN(C)C(=O)COc2ccc(C(=O)c3ccc(F)cc3)cc2)cc1,inconclusive: -44.8%
9,CCOc1ccc(CCNC(=O)Cn2nc(C)c3c(C)n(-c4ccccc4)nc3c2=O)cc1,inconclusive: -46.8%
10,CN1CCN(NC(=S)Nc2ccc(Oc3ccccc3)cc2)CC1,active: -66.9%
11,COc1ccc(-c2nc3ccc(N4CCN(C)CC4)cc3c(=O)[nH]2)cc1,inactive: -17.2%
12,Cc1ccc(/C=C2\SC(=S)N(CCCC(=O)Nc3nccs3)C2=O)cc1,inconclusive: -46.4%
13,CCn1c(CC(=O)Nc2ccc(F)cc2)nnc1SCC(=O)N1CCOCC1,inconclusive: -55.4%
14,COc1ccccc1N(C)S(=O)(=O)c1ccc(C(=O)Nc2cccc(S(=O)(=O)N3CCOCC3)c2)cc1,inconclusive: 0%
15,Cc1ccc(S(=O)(=O)NCC(=O)Nc2ccc3c(c2)OCO3)cc1,inconclusive: -44.8%
16,COC(=O)CCCNC(=O)CC1C(=O)NCCN1Cc1ccoc1 (centres undefined),inactive: -5.87%
17,CCOc1ccc(NC(=O)COc2ccc(C(=O)N3CCC(C(N)=O)CC3)cc2OC)cc1,inconclusive: -46.4%
18,COc1ccc(S(=O)(=O)Nc2ccc3c(c2)C(=O)N([C@H](C)CO)C[C@H](C)[C@@H](CN(C)C(=O)Nc2ccc(C(F)(F)F)cc2)OCCCC[C@H](C)O3)cc1,inconclusive: -40.1%
19,CCN(CC)C(=O)CSc1nc2c(sc(=S)n2-c2ccccc2)c(=O)n1-c1ccc(OC)cc1OC,active: -68.7%
20,Clc1ccc(C2Nc3cccc4cccc(c34)N2)c(Cl)c1,inactive: -17.9%
21,COc1ccc(C(=O)NCc2nnc(SCC(=O)N3CCCCC3)o2)cc1OC,inactive: 20.3%

row,SMILES,"activity change, negative = inhibition"
1,Cc1ccc(OCC(=O)N/N=C2/SCC(=O)N2Cc2ccco2)cc1,inconclusive: -49.3%
2,O=C(NNC(=S)Nc1ccc(Cl)cc1Cl)C1CC1,inactive: 49.4%
3,Cc1cc(=O)c(C(=O)Nc2ccc(N3CCOCC3)cc2N2CCOCC2)nn1-c1ccccc1Cl,inactive: -4.62%
4,CCOC(=O)C1=CCN(S(=O)(=O)c2ccc(C)cc2)C1c1ccc(CC)cc1 (centres undefined),active: -96.8%
5,OCC1(Cc2ccccc2)CCCN(Cc2ccn[nH]2)C1 (centres undefined),inconclusive: -42.8%
6,O=S1(=O)CCN(CCc2c[nH]c3ccccc23)CC1,inconclusive: -54.6%
7,C[C@@]12C(=O)N(c3cccc(F)c3)C(=O)N1[C@@H]1c3ccccc3OC[C@@H]1[C@H]2c1ccccc1,active: -101%
8,C=Cn1ccnc1P(=S)(c1ccc(Cl)cc1)c1nccn1C=C,active: -75.9%
9,COC(=O)C(C)Sc1nnc(Cc2cc(=O)[nH]c(=O)[nH]2)n1-c1ccc(OC)cc1 (centres undefined),inconclusive: -41.8%
10,O=C(N/N=C1\CCCc2c1[nH]c1ccc(Cl)cc21)c1ccncc1,inconclusive: -44%
11,Cc1cc(=O)n(Cc2ccc(F)cc2Cl)c2c1c(C)nn2-c1ccccc1,inactive: 1.73%
12,COc1ccccc1CNC(=O)C1CCN(S(=O)(=O)c2c(C)noc2/C=C/c2cccs2)CC1,inconclusive: -44.1%
13,CCS(=O)(=O)N1CCC(C(=O)NCc2ccccc2OC)CC1,inactive: 55%
14,CCn1c(=O)c2sccc2n2c(CCCC(=O)N3CCN(c4cc(C)ccc4C)CC3)nnc12,inconclusive: -45.9%
15,COc1cc(SC)ccc1C(=O)NCc1ccccc1,inactive: -34.6%
16,CCc1ccc(NC(=O)CC2C(=O)N(c3ccc(OC)cc3)C(=O)N2Cc2ccc(OC)cc2)cc1 (centres undefined),inconclusive: -42.5%
17,COc1ccc(CN2CCNC(=O)C2CC(=O)NCc2cn3ccc(C)cc3n2)c(OC)c1 (centres undefined),inconclusive: -45.8%
18,COc1ccc(CCNc2ncnc3c2c(-c2ccccc2)cn3-c2cccc(Cl)c2)cc1OC,inactive: 25.1%
19,Cc1cc(Nc2ccccc2)n(-c2nc3ccccc3[nH]2)n1,active: -86%
20,Cc1c(Br)c([N+](=O)[O-])nn1CC(=O)N1CCN(Cc2ccccc2)CC1,inconclusive: -49.7%
21,CN1CCN(C(=O)CCN2C(=O)/C(=C/c3ccccc3Cl)SC2=S)CC1,active: -84.7%

# As entered above:
# Value of CCc1ccc(NC(=O)CC2C(=O)N(c3ccc(OC)cc3)C(=O)N2Cc2ccc(OC)cc2)cc1 (centres undefined) under activity change, negative = inhibition: inconclusive: -42.5%
# Value of COC(=O)C(C)Sc1nnc(Cc2cc(=O)[nH]c(=O)[nH]2)n1-c1ccc(OC)cc1 (centres undefined) under activity change, negative = inhibition: inconclusive: -41.8%

# Next records follow:

row,SMILES,"activity change, negative = inhibition"
1,NS(=O)(=O)c1ccc(CCNC(=O)C2CCCN(S(=O)(=O)c3cccnc3)C2)cc1 (centres undefined),inactive: 7.86%
2,CC(NC(=O)c1ccc(Cl)c(S(=O)(=O)N2CCCCCC2)c1)c1cccnc1 (centres undefined),inconclusive: -45.7%
3,COc1cc(C2CC(=O)Oc3c(C(CCN4CCCC(C)C4)c4ccc(N(C)C)cc4)c(OC)cc(OC)c32)cc(OC)c1OC (centres undefined),inactive: 16.1%
4,Cc1ccccc1CC(=O)N1CCN(C(=O)c2ccco2)CC1,inactive: -37.3%
5,COc1ccc(-n2ncc3c(N4CCN(Cc5ccccc5)CC4)ncnc32)cc1,active: -95.1%
6,CCc1cc2cc(C(=O)Nc3ccc(C)cc3)sc2s1,active: -67.5%
7,C#C[C@]1(O)CC[C@H]2[C@@H]3CCC4=C(CCC(=O)C4)[C@H]3CC[C@@]21C,inconclusive: -45.1%
8,O=[N+]([O-])c1cccc(-c2cc(-c3cc(Br)ccc3O)[nH]n2)c1,inconclusive: -57.4%
9,O=C(CSc1nnc2ccc(-c3ccccc3)nn12)NCC1CCCO1 (centres undefined),inconclusive: -40%
10,O=C(c1ccc(Cl)c([N+](=O)[O-])c1)N1CCN(c2ccccn2)CC1,inconclusive: -46.5%
11,C=C(C)COc1ccc(-c2n[nH]c(C)c2Oc2ccccc2OC)c(O)c1,inactive: -19.9%
12,Cc1ccc(C)c(N2CCN(C(=O)c3ccc(CS(=O)(=O)c4ccccc4C)o3)CC2)c1,inactive: -15.9%
13,CCOc1ccc(NC(=O)Cn2c(=O)n(Cc3ccccc3)c(=O)c3sc4ccccc4c32)cc1,inactive: 14.6%
14,Cc1cccc(NC(=O)c2cc([N+](=O)[O-])ccc2N2CCCCC2)n1,inconclusive: -45.1%
15,O=C(CSc1nc(=O)n(Cc2ccco2)c2c1CCC2)NCc1ccccc1Cl,inactive: -14%
16,COC(=O)C(N)Cc1ccc(Cl)cc1 (centres undefined),inconclusive: -48.9%
17,Cc1cccn2c(=O)c3cc(C#N)c(=NC(=O)c4ccncc4)n(CCCOC(C)C)c3nc12,inconclusive: -46.1%
18,NC(=O)/C(=C\c1ccc([N+](=O)[O-])o1)c1ccco1,inconclusive: -50.6%
19,N#Cc1ccc(NC(=O)COCc2cc(-c3ccc4c(c3)OCO4)on2)cc1,inactive: 9.15%
20,CCCCn1c(NS(=O)(=O)c2ccccc2)c(C(=O)OCC)c2nc3ccccc3nc21,inconclusive: -59.1%
21,COc1ccc(N2CC(C(=O)Nc3cc(C(F)(F)F)ccc3N3CCCC3)CC2=O)c(OC)c1 (centres undefined),inconclusive: -40.3%
